# Some of these results come from one statement about several compounds together.
# System: adult Fasciola hepatica
# Test: Adult liver fluke in vitro assay
# Settings: 100 μg/mL
compound,measurement,setting,value
"O=C(Nc1cc(Cl)c(Cl)c(Cl)c1)c1cc(Oc2ccccc2)ccc1NS(=O)(=O)c1ccccc1 [Compound 2.2, 5-phenoxy-2-(phenylsulfonamido)-N-(3,4,5-trichlorophenyl)benzamide]",efficacy (percent reduced movement),after 6 h,> 90%
same,efficacy (percent reduced movement),after 24 h,> 95%

# Reference: patent publication US10047040B2, “Sulfonylaminobenzamide compounds as anthelmintics” (Elanco Tiergesundheit AG, priority 2014, dated 2018)
